Growth estimate data for 77 substances are collected here from the supplement of paper PMC5949888.

Most values lie at the floor of the assay. Slopes are relative: functional sequences can read slightly below zero. Some results are limits rather than exact numbers.

In the series the test system is Saccharomyces cerevisiae PS128 hsf1 delta, HSF1(1-493) fusion. Briefly: growth estimate (transactivation domain function in HSF1 fusion, heat-shock survival) (a.u. (slope of normalised read count over time)); higher = stronger growth at 37°C, i.e. more transactivation activity. As to conditions: library: random library.
Turning to HGSRIVAFGSAGQRGGVGRL, the growth estimate is less than -0.25. On to AGGCE, for which the growth estimate is -0.197. Turning to HFEPNSNTRGSGSPGGVPHS, the growth estimate was less than -0.25. Regarding RGYGTLG, the growth estimate was less than -0.25. For the substance STLTYSSPTDRHMLQGHKSA, the growth estimate was less than -0.25. Then DHVSC, with less than -0.25; and PGTSLEATSSPA, with less than -0.25; and AGMGLHTYIISGGCGDPMYQ, with less than -0.25. Then CRWSAQSAGKPISLLV, with less than -0.25; and LTHCF, with less than -0.25; and HKEDSAPVRWNN, with less than -0.25. Regarding EKEMLFSSLIKGDDPIHISP, the growth estimate is less than -0.25.

In the case of YNLPLHASSHRNAVGCPDTT, the growth estimate was less than -0.25. Under ARCHRSCSPSATGEVL stands less than -0.25; under RSIPMGPRCITGNE, -0.186. Then VSDAESFRDAGFPPYS, with less than -0.25. On to RPPDVLFLVRFRLIATRETM, for which the growth estimate is less than -0.25. VAKFNGCDTVCQRHTEQSVP: the growth estimate was less than -0.25. Then HTTWAYVLCL, with -0.25. Then EQIFS, with less than -0.25; and YAISHGRTSAVLPGVLIETS, with less than -0.25; and FVLAIVFWVATGSVNRDTFY, with less than -0.25.

On to GDTKASN, for which the growth estimate was less than -0.25.

On to ILRCMQPNKTNWVFLTPQSR, for which the growth estimate is less than -0.25. Then PCRRIRSGGRPVLPSAGTPW, with less than -0.25; and MGSAQRRCTLISTWDPEH, with less than -0.25; and SFVL, with less than -0.25. Then AKYSHSRRRHLLARASCG, with less than -0.25. VLPSSA: the growth estimate is less than -0.25.

Take IKLRLGSKLGEQYVGVCWTL: the growth estimate is less than -0.25. In the case of DTAGV, the growth estimate was less than -0.25. For the substance GSKIVFGRDKTVGKKSELLR, the growth estimate is less than -0.25.

For the substance ETSKAQSTKGAAALTVNCMD, the growth estimate was less than -0.25. Then GYAAWPSEMMVLLLLQNRTR, with less than -0.25. Regarding RPHGSQNHDV, the growth estimate is less than -0.25. Under VRFTGEPCSDWFDVPATLKI stands less than -0.25; under GRHIALVRISLSVGVAVSSA, less than -0.25; under TSASTARCGWIVTRSCHRGG, less than -0.25. Take QEVPSRLKQYYYTVVKGWAR: the growth estimate is less than -0.25.

Regarding CANTGCNSDPKGFAYIRP, the growth estimate is less than -0.25.

With LVYSLGIPHPLN, the growth estimate is less than -0.25.

Regarding ARDAGPTSTMGH, the growth estimate was less than -0.25. Under YRCANASSAETEYEARQPAD stands less than -0.25.

For DLGTSYSLVVMWSDATSGYP, the growth estimate is less than -0.25. Regarding WTLPLVVRSC, the growth estimate is less than -0.25.

For SNRPDGRVFYKRRKAF, the growth estimate was -0.248. Then GPMLLVQNAVTFK, with less than -0.25; and FGPLLLSPSLFLGEIALISL, with less than -0.25. Then RGERRASDVICRYAI, with less than -0.25. Under CLLSLEYVRSKNHFVM stands less than -0.25; under VPQLGLCLHGSASRACKYRC, less than -0.25. On to YSIISGY, for which the growth estimate was less than -0.25. For the substance RIRHILNQSIENA, the growth estimate was less than -0.25. With NNGMGVWT, the growth estimate was 0.37. Then SPIMQQGS, with less than -0.25.

For ETGHVFRWLKSLRWRRSSTS, the growth estimate was less than -0.25. Turning to CRAAASSRWKAGGGL, the growth estimate was less than -0.25.

Turning to EVECVPLGYGVPGRWQW, the growth estimate is less than -0.25. Under RGRLAWCCNSERHK stands less than -0.25. As for GGKRRLMTR, the growth estimate was less than -0.25. Then NNHIRHDGTGPWTNEQFTSA, with less than -0.25; and DRTINCRSVPRVELSLVVGA, with less than -0.25; and QRSCVVGSVSDYE, with less than -0.25.

For HLSIARLKSWGISQRGRASG, the growth estimate was less than -0.25.

For NLLRSTWLGTVRAI, the growth estimate is less than -0.25. For the substance RSGIVLAIANRVWWGEKFIV, the growth estimate was less than -0.25.

As for NRRRFLCRFPRWKPWTVKSA, the growth estimate was less than -0.25. Then DGDCAGVGHAARGTYGVSGA, with less than -0.25; and STVKTGGSAIVLLYYPRGKR, with less than -0.25; and FSVDATRPSQC, with less than -0.25. Then MCKSYSQGASPRICQDEHQS, with less than -0.25; and GSGLGSL, with less than -0.25. Under FLCLYEHDSYIGPVDSGQGS stands less than -0.25; under RSLAQTSRYAQLPQSTSVTI, less than -0.25; under ARVGMVVGRGTARGSIYVSV, less than -0.25. With EVLKVTVILVRDLILRFTPT, the growth estimate was less than -0.25. For the substance MYRRQSFLKPG, the growth estimate was less than -0.25.
